Data on one substance can be found in paper PMC6315541, “Nile Tilapia Derived Antimicrobial Peptide TP4 Exerts Antineoplastic Activity Through Microtubule Disruption” (Marine Drugs, 2018).

By UniProt entry, the sequences of proteins in these tests, tags left out.
UniProt Q9BQE3: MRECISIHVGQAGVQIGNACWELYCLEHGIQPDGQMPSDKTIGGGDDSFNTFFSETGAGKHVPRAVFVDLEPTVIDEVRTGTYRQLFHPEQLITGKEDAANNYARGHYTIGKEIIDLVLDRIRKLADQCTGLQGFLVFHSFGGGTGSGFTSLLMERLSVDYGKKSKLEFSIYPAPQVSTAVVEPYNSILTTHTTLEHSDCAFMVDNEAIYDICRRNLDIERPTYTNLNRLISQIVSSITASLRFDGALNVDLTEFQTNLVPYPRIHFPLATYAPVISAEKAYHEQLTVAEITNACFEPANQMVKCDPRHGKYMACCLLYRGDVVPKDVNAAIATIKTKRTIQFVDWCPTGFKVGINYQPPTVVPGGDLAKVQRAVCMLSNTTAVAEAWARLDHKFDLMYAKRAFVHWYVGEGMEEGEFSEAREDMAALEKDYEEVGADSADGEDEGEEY

No constants are given. Whether binding was seen depends on the method and setting. In cells and extracts the contact can be indirect. Some results given as binding are weak or reduced against the parent protein; the word gives no strength.

This assay addresses T1, Tilapia piscidin (TP) 4 (Nile tilapia (Oreochromis niloticus)).
T1 sequence (peptide): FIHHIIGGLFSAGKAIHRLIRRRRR
Put plainly: co-IP; A549 cells treated with 10 μg/mL TP4 for 3 h; lysate precipitated with rabbit anti-TP4 antibody and magnetic beads (rabbit IgG as control); blot with α-Tubulin antibody (clone DM1A); only the target purified.

For the substance α-Tubulin (from UniProt Q9BQE3 1-449), the binding result is listed as “binds”.
